Reference: PubChem BioAssay AID1347426 (Functional Genomics Laboratory (NCATS/FGL), 2020)
The whole screen tested about 31,000 sequences, of which about 1,400 (4.5%) were called active.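 The calls were made as follows: active = median seed-adjusted z-score above 1 or below -1; inactive = the rest.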 The list shows a part of the results.

Assay: Novel Modifiers of Survival Motor Neuron (SMN) Protein: Gene Identification via Genome-wide siRNA Screen;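 also: luminescence tracks full-length SMN protein made from the SMN2 reporter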
Settings: HEK293T SMN2-luciferase reporter, siRNA knockdown, 72 h; actives lie on both sides
Procedure, shortened: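 HEK293T cells stably expressing an SMN2 splicing/cDNA-luciferase reporter were reverse-transfected with a druggable-genome siRNA library and read by luminescence at 72 hours; hits defined by MAD score above 1.0 or below -1.0.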

Sequence	median seed-adjusted z-score
GCAGAUUGCUAGGACCACATT against MYOT	inactive: 0.091
CAGGUGAUAUGGAGUGUAUTT against SNX18	inactive: 0
GAGGCGGCAUUAAGAGGAATT against NPPB	inactive: -0.973
CAACAUACCUCAAUCCUGUTT against MMP11	inactive: -0.354
GCAAUAAUCUCUCGCAGUATT against TP73	inactive: 0.353
GAAUAGAUCUGAACCGGAATT against CPE	inactive: 0.139
GAAACACUCUCAGAUGCUATT against DNAJB9	inactive: 0.0962
CCCAAUUGUAUAUCUGAUATT against CYSLTR2	inactive: 0.0461
CGGAUAACUUUAUCUUGUUTT against NTRK3	inactive: 0
CCUAAGGGCAUGUAUUUAATT against RCOR3	inactive: 0.0446
UGGGCACAAUGGUUACUCATT against POGZ	inactive: -0.376
GGAUGGGUCUCGCAAAAUATT against ZFYVE1	inactive: -0.546
GGAAAGCUCUUCGUCUGGATT against IFIT5	inactive: 0
GGUACAAGGAUGAUACGGATT against ALPK3	inactive: 0.365
CAGCAUCACCAGUUCAUGUTT against ZNF526	inactive: 0.0265
GAGCUAAAACGGAGCUUUUTT against MYC	inactive: -0.543
CAAAGACCGUGAUUUAGCATT against BRDT	inactive: -0.357
ACACUCAACUACUGCGUAUTT against TSPO	inactive: -0.206
GAAGGUAAAGAGCUAGAAATT against CALB2	inactive: 0
GUACCUUGCUUACAUAAAUTT against SMARCE1	inactive: 0
GAUGCUUCCUGGAACCCUUTT against RAD54L2	inactive: -0.0646
GCAUCUCCAUGUAGAAUAATT against FGF1	inactive: 0.415
AGAUAACAGCAUGGAUUUATT against MMD	inactive: 0.193
GACUUCUGCUGAUACUUUUTT against GPR156	inactive: 0
GAGCUUCGAUUCAAUAAAATT against SLC5A6	inactive: 0.994
GCUCCACCCUGUACACUAATT against LMO3	inactive: 0.496
AGAAAGACCUUUUAAUCUATT against SNTB1	inactive: 0.488

Sequence	median seed-adjusted z-score
GUGCUAAAAUCUUCGGUAATT against PCDHB12	inactive: -0.0664
GAAGCCGACCAGAAUGAUATT against ITPK1	inactive: 0.0575
GCUACGAUGUGGAAACAGATT against KEAP1	inactive: 0.207
CGAGUUACUUUUCAGCUAATT against MYH4	active: -1.8
CUACCUGGGUUACUAAACATT against HNRNPU	inactive: 0.431
CAAUCGCAGAGAAGCUGAATT against KRT40	inactive: -0.324
GCAACAAGUUCACCCAGAATT against CHST11	inactive: -0.275
AGCUGUUGAUAGUAUUGAATT against TSNARE1	inactive: -0.0516
GAAUCCGAGUUAACAGUAATT against SLC4A1AP	inactive: -0.0117
CCUCAACUAUCAGAACAAUTT against KLF10	inactive: 0.616
GCUUGUAACUUUCAACUAATT against ZNF781	inactive: 0.0307
GUUCCUACGUGUACAACGATT against DNASE1L1	inactive: 0.542
GCAUCGAAUUUAUCCGCAATT against ZKSCAN2	inactive: -0.0343
GGAGAUACAUCACCGAGAATT against ELMO3	inactive: -0.0898
GGAAUGACCUUAAAUGAGATT against UBE2W	inactive: -0.655
GACUAUGUAUCUUUACGAUTT against OVCH1	inactive: 0.0211
CAAUGAUGGACAUACCAUUTT against CA8	inactive: 0.172
AGAUGUCAGAAGUAUAUAUTT against WNT5A	inactive: 0.651
GAACCACAAUGUUAACAAUTT against CYBRD1	inactive: 0.623
GGGAUUCUGCUGUAUAUGATT against GRID1	inactive: 0.66
GCCUCCAGGUGUACGUUAATT against KCNMB2	inactive: 0
CAUCAGUGCUGAUAGUGAATT against GNMT	inactive: 0.0261
GCCUUUGAGUUCAUGCUGUTT against CCRK	inactive: -0.47
CCCUAAAGUUAAUCACCCATT against NUCB2	inactive: 0.45
GACGAGCUCUUUAACAUCATT against DCLK3	inactive: -0.0139
UGGUGACGCUGUUCAAAAATT against POMC	inactive: 0.374
GGAUGAUGAUUACUGGUCUTT against GSN	inactive: -0.222

Quoted at random: 4 records from the list.
Sequence	median seed-adjusted z-score
CCCUAAAGUUAAUCACCCATT against NUCB2	inactive: 0.45
CAUCAGUGCUGAUAGUGAATT against GNMT	inactive: 0.0261
GCAUCGAAUUUAUCCGCAATT against ZKSCAN2	inactive: -0.0343
CAAUCGCAGAGAAGCUGAATT against KRT40	inactive: -0.324
